From patent US20160024558 come the findings set out here.

The target in the data set is T1, 9° North DNA polymerase, polymerase-inactive construct Y538H, D540I, T541Y (UniProt Q56366).
T1 sequence (looked up, limits assumed): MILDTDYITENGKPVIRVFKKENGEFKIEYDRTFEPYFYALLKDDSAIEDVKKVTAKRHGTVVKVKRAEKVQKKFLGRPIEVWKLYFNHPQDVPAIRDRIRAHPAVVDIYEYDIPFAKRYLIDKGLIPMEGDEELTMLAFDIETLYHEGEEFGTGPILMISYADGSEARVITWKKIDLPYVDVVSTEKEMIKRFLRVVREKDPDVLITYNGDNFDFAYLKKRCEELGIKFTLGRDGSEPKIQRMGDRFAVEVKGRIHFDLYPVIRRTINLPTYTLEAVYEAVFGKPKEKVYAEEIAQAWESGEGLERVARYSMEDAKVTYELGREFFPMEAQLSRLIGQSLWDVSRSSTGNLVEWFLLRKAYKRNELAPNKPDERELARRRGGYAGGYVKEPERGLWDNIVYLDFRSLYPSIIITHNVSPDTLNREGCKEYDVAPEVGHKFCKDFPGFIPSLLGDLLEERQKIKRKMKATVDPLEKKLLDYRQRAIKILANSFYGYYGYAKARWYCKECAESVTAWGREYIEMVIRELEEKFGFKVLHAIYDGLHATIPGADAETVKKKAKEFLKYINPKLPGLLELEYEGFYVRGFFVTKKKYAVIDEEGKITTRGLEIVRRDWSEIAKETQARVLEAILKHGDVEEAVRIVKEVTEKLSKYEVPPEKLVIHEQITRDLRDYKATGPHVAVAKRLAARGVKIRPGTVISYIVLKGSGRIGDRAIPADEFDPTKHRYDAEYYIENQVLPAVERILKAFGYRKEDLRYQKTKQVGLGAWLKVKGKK
The data set is described as follows: inhibition of the protein. Particulars: dideoxyU (so in the source) at position 25 of the template strand; concentration-dependent inhibition of 120 nM active 9° North strand displacement, 55 C; purified recombinant protein.

Where a protein sequence is shown, tags need not be part of it.

Consider “TCGAGCACGCGGCACTTATTGCAAUAGTGCCGAGTCAGCGCGCTGACTCGGC / GCAATAAGTGCCGCGTGCTCGA [FAM U-template / quencher duplex (FIG. 3)]”, for which the “activity on this sequence” value is recorded as “active”.
